Assay results from patent US20240400677A1.
Residue numbers refer to the chain shown, from its start. No constants are given. Whether binding was seen depends on the method and setting. For part of these data: Binding can be weak; no strength is given. Blank lines part the entries; values can stand above or below the binder they belong to.

Assays:
[1] = target: Human SIRPβ1 (plate-coated extracellular domain) (Homo sapiens); assay: ELISA, coated SIRP ECD (2 µg/mL), anti-human IgG, luminescence
[2] = target: cynomolgus monkey SIRPβ1-His monomer protein (cynomolgus monkey); assay: BLI Octet, captured scFv PPE, cyno SIRP

B1: Antibody 78 (antibody, V domains shown)
VH: QVQLVQSGAEVKKPGASVKVSCKASGYTFTTYGISWVRQAPGQGLEWMGWMDPNSGSTGYAQKFQGRVTMTRDTSTSTVYMELSSLRSEDTAVYYCARGRGNSYYYYYMDVWGKGTTVTVSS
VL: DIQMTQSPSSLSASVGDRVTITCRASQRIGSYLNWYQQKPGKAPKLLIYGASNLQSGVPSRFSGSGSGTDFTLTISSLQPEDFATYYCQQANSFPFTFGPGTKVDIK
- binding [1]: no binding (tested: about 40 µg/mL)

B2: Antibody 60 (antibody, V domains shown)
VH: EVQLLESGGGLVQPGGSLRLSCAASGFTLGSYWMHWVRQAPGKGLEWVSLISWDGGSTYYADSVKGRFTISRDNSKNTLYLQMNSLRAEDTAVYYCAKGPWVGYSGYDLNYYYYGMDVWGQGTTVTVSS
VL: DIQMTQSPSSLSASVGDRVTITCRASQDIRRALAWYQQKPGKAPKLLIYAASSLQSGVPSRFSGSGSGTDFTLTISSLQPEDFATYYCLQHNSYPPTFGQGTKLEIK
- binding [1]: no binding (tested: about 40 µg/mL)

B3: Antibody 63 (antibody, V domains shown)
VH: QVQLVQSGAEVKKPGASVKVSCKASGYTFTGYYMHWVRQAPGQGLEWMGIINPSGGSTNYAQKFQGRVTMTRDTSTSTVYMELSSLRSEDTAVYYCARGPIGYGMDVWGQGTLVTVSS
VL: B2 VL with D28G, R30G, R31N, A32D, A34G, S53N, Q55E, S56T, N92H, P96F
- binding [1]: no binding (tested: about 40 µg/mL)

B4: Antibody 64 (antibody, V domains shown)
VH: QVQLVQSGAEVKKPGASVKVSCKASGYTFTSYYMHWVRQAPGQGLEWMGRINPNSGGTKYAQKFQGRVTMTRDTSTSTVYMELSSLRSEDTAVYYCARLGSAYFDLWGRGTLVTVSS
VL: DIQMTQSPSSLSASVGDRVTITCRASQSVDTWLAWYQQKPGKAPKLLIYEASTLESGVPSRFSGSGSGTDFTLTISSLQPEDFATYYCQQANSFPITFGQGTRLEIK
- binding [1]: no binding (tested: about 40 µg/mL)

B6: Antibody 71 (antibody, V domains shown)
VH: QVQLVQSGAEVKKPGASVKVSCKASGYTFTSYYIHWVRQAPGQGLEWMGTINPSGGSTSYAQKFQGRVTMTRDTSTSTVYMELSSLRSEDTAVYYCARETSRWLRDYYYGMDVWGQGTTVTVSS
VL: DIVMTQSPLSLPVTPGEPASISCRSSQSLLHSNGYNYLDWYLQKPGQSPQLLIYDASSLESGVPDRFSGSGSGTDFTLKISRVEAEDVGVYYCMQGTHWPLTFGGGTKVEIK
- binding [1]: no binding (tested: about 40 µg/mL)

B7: Antibody 74 (antibody, V domains shown)
VH: QVQLVQSGAEVKKPGASVKVSCKASGGTFSNYGFSWVRQAPGQGLEWMGWMSPSSGNTGYAQKFQGRVTMTRDTSTSTVYMELSSLRSEDTAVYYCARERSGSYFDYWGQGTLVTVSS
VL: EIVMTQSPATLSVSPGERATLSCRASQSVSSYLAWYQQKPGQAPRLLIYGTSTRATGIPARFSGSGSGTEFTLTISSLQSEDFAVYYCQQYGSLPFTFGQGTRLEIK
- binding [1]: no binding (tested: about 40 µg/mL)

B8: Antibody 82 (antibody, V domains shown)
VH: QVQLVQSGAEVKKPGASVKVSCKASGHTFNNNYIHWVRQAPGQGLEWMGIINPSGGSTSYAQKFQGRVTMTRDTSTSTVYMELSSLRSEDTAVYYCARQIQDYGYYYYGMDVWGQGTTVTVSS
VL: B7 VL with S31K, G50A, T51I, T53A, T56A, G92Y, L94S, F96P, R103K, L104V
- binding [1]: no binding (tested: about 40 µg/mL)

B9: Antibody 57 (antibody, V domains shown)
VH: QVQLVQSGAEVKKPGASVKVSCKASGYTFTSYYMHWVRQAPGQGLEWMGWINPNSGNAGFAQKFQGRVTMTRDTSTSTVYMELSSLRSEDTAVYYCARGPVYSYGPFDYWGQGTLVTVSS
VL: DIQMTQSPSSLSASVGDRVTITCRASQGISTYLAWYQQKPGKAPKLLIYAASTLQSGVPSRFSGSGSGTDFTLTISSLQPEDFATYYCQQSHSAPITFGQGTKVEIK
- binding [1]: no binding (tested: about 40 µg/mL)

B11: Antibody 58 (antibody, V domains shown)
VH: QVQLVQSGAEVKKPGASVKVSCKASGYTFTAYYMHWVRQAPGQGLEWMGIINPSGGSTSYAQKFQGRVTMTRDTSTSTVYMELSSLRSEDTAVYYCARDSGWYAPGYYYGMDVWGQGTTVTVSS
VL: B9 VL with Q27E, G28S, T31H, Y32W, A50G, H92Y, S93T, A94P, I96L, Q100G
- binding [1]: no binding (tested: about 40 µg/mL)

B14: Antibody 67 (antibody, V domains shown)
VH: QVQLVQSGAEVKKPGASVKVSCKASGYTFTNFDINWVRQAPGQGLEWMGWISAYNGHTNYAQNLQGRVTMTRDTSTSTVYMELSSLRSEDTAVYYCAQEAAAGYFDYWGQGTLVTVSS
VL: DIQMTQSPSSLSASVGDRVTITCRASQDIRNDLAWYQQKPGKAPKLLIYDASNLETGVPSRFSGSGSGTDFTLTISSLQPEDFATYYCQQSYGTPYTFGQGTKLEIK
- binding [1]: no binding (tested: about 40 µg/mL)

B17: Antibody 11 (scFv, V domains shown)
VH: QVQLVQSGAEVKKPGASVKVSCKASGYTFTSYDINWVRQAPGQGLEWMGWMNPNSGNTGYAQKFQGRVTMTRDTSTSTVYMELSSLRSEDTAVYYCAKGAVAGTYYYYGMDVWGQGTTVTVSS
VL: B1 VL with R28T, G30N, S31N, G50D, Q55E, S56T, F96L, P100Q, D105E
- binding [2]: binds

The remaining lines, values ahead:

- binding [1]: no binding (tested: about 40 µg/mL)
B5: Antibody 81 (antibody, V domains shown)
VH: QVQLVQSGAEVKKPGASVKVSCKASGYTFTSYDINWVRQAPGQGLEWMGWISGYNGNTNYAQKFQGRVTMTRDTSTSTVYMELSSLRSEDTAVYYCARSFDWLLLLDYWGQGTLVTVSS
VL: B4 VL with V29I, D30S, T31S, E50D, S52T, A91Y, N92D, F94Y, I96W, R103K

- binding [1]: no binding (tested: about 40 µg/mL)
B10: Antibody 72 (antibody, V domains shown)
VH: QVQLVQSGAEVKKPGASVKVSCKASGYTFTDNYLHWVRQAPGQGLEWMGIIETSGGSTDYAQKFQGRVTMTRDTSTSTVYMELSSLRSEDTAVYYCARSFGGYSYDDAFDIWGQGTTVTVSS
VL: B9 VL with R24Q, T31N, A34N, T53S, H92Y, A94S, I96Y

- binding [1]: no binding (tested: about 40 µg/mL)
B12: Antibody 69 (antibody, V domains shown)
VH: B17 VH with D33Y, I34M, N35H, G56D, K98R, G99V, A100G, A102G, G103Y, T104G
VL: B9 VL with S26G, G28S, S30G, T31D, A34N, T53S, H92Y, A94T, I96W

- binding [1]: no binding (tested: about 40 µg/mL)
B13: Antibody 62 (antibody, V domains shown)
VH: QVQLVQSGAEVKKPGASVKVSCKASGGTFSNYDINWVRQAPGQGLEWMGWISAYNGNTNYAQKLQGRVTMTRDTSTSTVYMELSSLRSEDTAVYYCAAEAYGDYSLDPWGQGTLVTVSS
VL: B9 VL with R24Q, T31S, A34N, T53S, S56N, H92Y, A94T, K103R, V104L

- binding [1]: no binding (tested: about 40 µg/mL)
B15: Antibody 80 (antibody, V domains shown)
VH: QVQLVQSGAEVKKPGASVKVSCKASGYTFTRYDINWVRQAPGQGLEWMGWMNPNSGNTGYAQKLQGRVTMTRDTSTSTVYMELSSLRSEDTAVYYCARERVGYCSSTSCLHPLDYWGQGTLVTVSS
VL: B14 VL with D28G, A34G, D50S, E55Q, T56S, G93D, T94V, Y96L, Q100G, L104V

- binding [1]: no binding (tested: about 40 µg/mL)
B16: Antibody 79 (antibody, V domains shown)
VH: QVQLVQSGAEVKKPGASVKVSCKASGYTFTSYYMHWVRQAPGQGLEWMGWMNPNSGNTGYAQKFQGRVTMTRDTSTSTVYMELSSLRSEDTAVYYCARDQMYSSYGMDVWGQGTTVTVSS
VL: B14 VL with Q27E, D28S, R30T, D32W, D50K, N53S, T56S, L104V

- binding [1]: no binding (tested: about 40 µg/mL)
B18: Antibody 66 (antibody, V domains shown)
VH: QVQLVQSGAEVKKPGASVKVSCKASGGTFSSYAISWVRQAPGQGLEWMGIINPSSSSTGYAQKFQGRVTMTRDTSTSTVYMELSSLRSEDTAVYYCARAGYYDSSGYYYSPYYGMDVWGQGTTVTVSS
VL: EIVMTQSPATLSVSPGERATLSCRASQSISGSYLAWYQQKPGQAPRLLIYGASTRATGIPARFSGSGSGTEFTLTISSLQSEDFAVYYCQQYGSFPFTFGPGTKVDIK

- binding [1]: no binding (tested: about 40 µg/mL)
B19: Antibody 56 (antibody, V domains shown)
VH: QVQLVQSGAEVKKPGASVKVSCKASGYTFTSYYMHWVRQAPGQGLEWMGWVDPNNGDTGYAQKFQGRVTMTRDTSTSTVYMELSSLRSEDTAVYYCARDNWGSLDVWGKGTTVTVSS
VL: DIVMTQSPLSLPVTPGEPASISCRSSQSLLHSNGYNYLDWYLQKPGQSPQLLIYAASTLQSGVPDRFSGSGSGTDFTLKISRVEAEDVGVYYCMQGLQTLYSFGQGTKLEIK

- binding [1]: no binding (tested: about 40 µg/mL)
B20: Antibody 70 (antibody, V domains shown)
VH: B16 VH with T30S, S31N, D99A, Q100S, Y105S, M107F, V109Y, T115L
VL: B19 VL with A55L, L59R, Q60A, S61P, L97S, Q98H, T99W, L100P, Y101P, K108R

- binding [1]: no binding (tested: about 40 µg/mL)
B21: Antibody 75 (antibody, V domains shown)
VH: QVQLVQSGAEVKKPGSSVKVSCKASGGTFSNYAISWVRQAPGQGLEWMGGIIPIFGSTASYAQKFQGRVTITADESTSTAYMELSSLRSEDTAVYYCARGVGDDTLTDWGQGTLVTVSS
VL: B6 VL with D55A, E60Q, G96A, T97L, H98Q, W99T
